The values that follow come from patent US20090214558A1.

Residue numbers refer to the chain shown, from its start. These are yes or no findings as the source states them, for the method shown. Some binding calls cover weakened binding; strength is not graded here.

For test [1], the target named is T1, MAdCAM (analyte of the BIAcore experiment) (UniProt Q13477).
T1 sequence (looked up): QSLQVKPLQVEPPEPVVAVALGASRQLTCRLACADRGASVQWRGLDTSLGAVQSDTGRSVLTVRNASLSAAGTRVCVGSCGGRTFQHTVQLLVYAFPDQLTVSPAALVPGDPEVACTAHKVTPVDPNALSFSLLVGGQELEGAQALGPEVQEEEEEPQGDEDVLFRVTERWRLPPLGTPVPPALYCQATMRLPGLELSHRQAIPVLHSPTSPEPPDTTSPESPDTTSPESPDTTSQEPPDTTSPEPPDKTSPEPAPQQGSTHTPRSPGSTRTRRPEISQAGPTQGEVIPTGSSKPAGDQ
Nature of the test: BIAcore and JY cell adhesion assay (results of Table 2).

Test [2] concerns the target T2, MAdCAM on CHO cells expressing MAdCAM (UniProt Q13477).
T2 sequence (looked up): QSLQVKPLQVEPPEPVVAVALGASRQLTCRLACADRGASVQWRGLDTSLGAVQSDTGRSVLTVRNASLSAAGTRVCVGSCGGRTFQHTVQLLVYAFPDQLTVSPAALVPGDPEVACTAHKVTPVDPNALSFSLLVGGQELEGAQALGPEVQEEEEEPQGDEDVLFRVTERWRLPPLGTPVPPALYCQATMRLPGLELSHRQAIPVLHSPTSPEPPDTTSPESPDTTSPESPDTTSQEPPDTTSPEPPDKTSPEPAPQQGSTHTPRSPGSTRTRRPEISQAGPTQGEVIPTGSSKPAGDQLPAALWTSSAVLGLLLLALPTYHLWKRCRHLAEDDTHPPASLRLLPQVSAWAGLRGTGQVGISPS
Nature of the test: flow cytometry on CHO cells expressing MAdCAM.

B1: 7.16.6_S (antibody, human IgG2, kappa, V domains shown)
VH: QVQLVQSGAEVKKPGASVKVSCKASGYTFTSYGINWVRQAPGQGLEWMGWISVYSGNTNYAQKVQGRVTMTADTSTSTAYMDLRSLRSDDTAVYYCAREGSSSSGDYYYGMDVWGQGTTVTVSS
VL: DIVMTQTPLSLSVTPGQPASISCKSSQSLLHTDGTTYLYWYLQKPGQPPQLLIYEVSNRFSGVPDRFSGSGSGTDFTLKISRVEAEDVGIYYCMQSIQLPWTFGQGTKVEIKR
Turning to B1, the binding entry in test [1] and in test [2] was “binds” each time.

B2: 7.16.6_L (antibody, V domains shown)
VH: B1 VH with V64L
VL: B1 VL with S96N
B2: the binding entry in test [1] and in test [2] was “binds” throughout.

B3: 7.16.6_LVS (antibody, human IgG2, kappa, V domains shown)
VH: B1 VH with V64L
VL: B1 VL with I90V
For B3, the binding result in test [1] and in test [2] was “binds” in each case.

B4: 7.16.6_VS (antibody, human IgG2, kappa, V domains shown)
VH: B1 VH
VL: B1 VL with I90V
Regarding B4, the binding entry in test [1] and in test [2] was “binds” throughout.

B5: 7.16.6_V (antibody, human IgG2, kappa, V domains shown)
VH: B1 VH
VL: B1 VL with I90V, S96N
Take B5: the binding result in test [1] and in test [2] was “binds” throughout.
